Patent publication US20150153365A1

How the values were obtained:
[1] = molecular target: zebrafish aplnrb (zebrafish); assay: AP-ELA binding assay on transfected 293T cells (FIG. 7G)
[2] = molecular target: zebrafish aplnrb (zebrafish); assay: AP-ELA binding assay on transfected 293T cells (FIG. 7H)
[3] = molecular target: zebrafish aplnrb (zebrafish); assay: AP-ELA binding assay on transfected HEK293T cells, chromogenic alkaline phosphatase read-out

- binding [1]: binds
- binding [2]: binds
- binding [3]: binds
Binder: QRPVNLTMRRKLRKHNCLQRRCMPLHSRVPFP (peptide, not shown: large carriers) [ELA conjugated to Alkaline Phosphatase (AP-ELA)]

Results are given in words; binding and its absence hold for the method and conditions named. Binding calls can cover weak binding; strength is not graded here.
